{"source": "PubChem BioAssay AID1259308 (NCATS, 2017)", "purpose": "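Candidate targets for better recombinant protein yield in mammalian cells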 (primary screen)", "cell system": "human HEK293 embryonic kidney cells stably expressing firefly luciferase (HEK-CMV-Luc2-Hygro)", "reagents": "single siRNA against human genes, 0.8 pmol siRNA per well", "time to read-out": "72 h", "read-out": "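Reporter luminescence and viable-cell signal on separate replicate plates, given as percent of non-targeting control and median/MAD z-scores, plus per-cell luciferase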", "reading the numbers": "total luciferase, z-score and total luciferase, % of control: higher = more reporter protein produced", "rule for the call": "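Active when the median/MAD z-score for overall luciferase is greater than 3; a gene was taken forward for validation with new siRNAs if at least two of its three siRNAs passed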", "calls": "active = raised luciferase; inactive = no rise", "note": "This is one part, drawn at random, of about 59,000 deposited reagents. About 1,510 of all reagents (2.6%) count as active. 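Calls use total luciferase alone and ignore viability, so some active siRNAs may act by altering cell number.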 Not all columns of the deposit are shown."}
{"gene symbol": "TRAF3IP2 (TRAF3 interacting protein 2)", "PubChem SID": "SID160729160", "total luciferase, z-score": -0.776, "total luciferase, % of control": 66.5, "call": "inactive"}
{"gene symbol": "TRAF3IP2 (TRAF3 interacting protein 2)", "PubChem SID": "SID160729161", "total luciferase, z-score": 0.464, "total luciferase, % of control": 91.1, "call": "inactive"}
{"gene symbol": "TRAF3IP2 (TRAF3 interacting protein 2)", "PubChem SID": "SID160729162", "total luciferase, z-score": 0.489, "total luciferase, % of control": 91.6, "call": "inactive"}
{"gene symbol": "RANBP2 (RAN binding protein 2)", "PubChem SID": "SID160715640", "total luciferase, z-score": 2.04, "total luciferase, % of control": 122, "call": "inactive"}
{"gene symbol": "RANBP2 (RAN binding protein 2)", "PubChem SID": "SID160715641", "total luciferase, z-score": -0.321, "total luciferase, % of control": 75.5, "call": "inactive"}
{"gene symbol": "RANBP2 (RAN binding protein 2)", "PubChem SID": "SID160715642", "total luciferase, z-score": 0.497, "total luciferase, % of control": 91.8, "call": "inactive"}
{"gene symbol": "AP1B1 (adaptor related protein complex 1 subunit beta 1)", "PubChem SID": "SID160715233", "total luciferase, z-score": 0.73, "total luciferase, % of control": 96.4, "call": "inactive"}
{"gene symbol": "AP1B1 (adaptor related protein complex 1 subunit beta 1)", "PubChem SID": "SID160715245", "total luciferase, z-score": -0.965, "total luciferase, % of control": 62.7, "call": "inactive"}
{"gene symbol": "AP1B1 (adaptor related protein complex 1 subunit beta 1)", "PubChem SID": "SID160715254", "total luciferase, z-score": 0.603, "total luciferase, % of control": 93.9, "call": "inactive"}
{"gene symbol": "GABRA1 (gamma-aminobutyric acid type A receptor subunit alpha1)", "PubChem SID": "SID160775328", "total luciferase, z-score": 0.32, "total luciferase, % of control": 88.2, "call": "inactive"}
{"gene symbol": "GABRA1 (gamma-aminobutyric acid type A receptor subunit alpha1)", "PubChem SID": "SID160775336", "total luciferase, z-score": 0.213, "total luciferase, % of control": 86.1, "call": "inactive"}
{"gene symbol": "GABRA1 (gamma-aminobutyric acid type A receptor subunit alpha1)", "PubChem SID": "SID160775345", "total luciferase, z-score": -0.262, "total luciferase, % of control": 76.7, "call": "inactive"}
{"gene symbol": "GGA1", "PubChem SID": "SID160724339", "total luciferase, z-score": 0.0494, "total luciferase, % of control": 82.9, "call": "inactive"}
{"gene symbol": "GGA1", "PubChem SID": "SID160724340", "total luciferase, z-score": -0.471, "total luciferase, % of control": 72.5, "call": "inactive"}
{"gene symbol": "GGA1", "PubChem SID": "SID160727905", "total luciferase, z-score": -0.912, "total luciferase, % of control": 63.8, "call": "inactive"}
{"gene symbol": "HMGCL (3-hydroxy-3-methylglutaryl-CoA lyase)", "PubChem SID": "SID160775058", "total luciferase, z-score": 0.971, "total luciferase, % of control": 101, "call": "inactive"}
{"gene symbol": "HMGCL (3-hydroxy-3-methylglutaryl-CoA lyase)", "PubChem SID": "SID160775059", "total luciferase, z-score": -0.232, "total luciferase, % of control": 77.3, "call": "inactive"}
{"gene symbol": "HMGCL (3-hydroxy-3-methylglutaryl-CoA lyase)", "PubChem SID": "SID160775061", "total luciferase, z-score": -1.14, "total luciferase, % of control": 59.2, "call": "inactive"}
{"gene symbol": "LINC00917 (long independently transcribed non-coding RNA 917)", "PubChem SID": "SID160774410", "total luciferase, z-score": -0.151, "total luciferase, % of control": 78.9, "call": "inactive"}
{"gene symbol": "LINC00917 (long independently transcribed non-coding RNA 917)", "PubChem SID": "SID160774411", "total luciferase, z-score": -3.3, "total luciferase, % of control": 16.2, "call": "inactive"}
{"gene symbol": "LINC00917 (long independently transcribed non-coding RNA 917)", "PubChem SID": "SID160774412", "total luciferase, z-score": -0.0217, "total luciferase, % of control": 81.5, "call": "inactive"}

2 entries from above, ordered by “total luciferase, z-score”, low to high:
{"gene symbol": "GGA1", "PubChem SID": "SID160727905", "total luciferase, z-score": -0.912, "total luciferase, % of control": 63.8, "call": "inactive"}
{"gene symbol": "GGA1", "PubChem SID": "SID160724340", "total luciferase, z-score": -0.471, "total luciferase, % of control": 72.5, "call": "inactive"}
